Data on twelve compounds can be found in patent publication US20170165274A1, “COMPOSITION” (SHIELD TX (UK) LTD., priority 2014, published 2017).

Data set [1] concerns tongue. The data set is described as follows: Taste test: solutions applied to areas of the tongue with a soaked cotton wool bud, blindfolded subjects. The class given is in vivo, human.
The conditions of data set [2]: compared with sugar; cited from earlier work.
Setting [3] is: both concentrations pooled, 24 tests.
Where [4] appears, read: 10^−3 M and 10^−4 M pooled, 24 tests.
Where [5] appears, read: 10^−3 M, 12 tests (3 areas x 4 subjects).
Setting [6] is: 10^−4 M, 12 tests (3 areas x 4 subjects).

Take `O=S(=O)([O-])[O-].[Fe+2]` [FeS04, iron sulphate, reference compound]: in data set [1] (setting [3]), the “Number of tests perceived as c (sour/metallic)” value (“Number … (sour/metallic)” for short) was 12; the “Number of tests perceived as d (bitter and metallic)” value (shortened to “Number of tests perceived as d”) is recorded as 7; the “Number of tests perceived as e (no taste)” value (shortened to “Number … (no taste)”) came out at 5.
For `Cc1occc(=O)c1[O-].Cc1occc(=O)c1[O-].Cc1occc(=O)c1[O-].[Fe+3]` [Fe[Maltol]3, ferric trimaltol], in data set [1] (setting [4]), the “Indistinguishable from tap water” value was 15 tests and the “Recognized as slightly metallic” value was determined as 9 tests. For the same compound, in data set [1] (setting [3]), the “Number … (sour/metallic)” value amounted to 3; the “Number of tests perceived as d” value came to 6; the “Number … (no taste)” value is reported as 15.
As for `OC[C@@H](O)[C@@H](O[C@@H]1O[C@H](CO)[C@H](O)[C@H](O)[C@H]1O)[C@H](O)[C@@H](O)CO` [Lactitol], the “Relative sweetness of sugar” value in data set [2] is listed as 30-40%.
Turning to `OC[C@@H](O)[C@@H](O[C@H]1O[C@H](CO)[C@@H](O)[C@H](O)[C@H]1O)[C@H](O)[C@@H](O)CO` [Maltitol], the “Relative sweetness of sugar” value in data set [2] is 75%.
As to `OC[C@@H](O)[C@@H](O)[C@H](O)[C@H](O)CO` [Mannitol], the “Relative sweetness of sugar” value in data set [2] was 50-70%.
Turning to `O=S(=O)([O-])[O-].[Fe+2]` [Solution 3], in data set [1] (setting [5]), the “Number … (sour/metallic)” value amounted to 8c; the “Number of tests perceived as d” value came out at 3 days; the “Number … (no taste)” value was 1e.
Regarding `O=S(=O)([O-])[O-].[Fe+2]` [Solution 4], in data set [1] (setting [6]), the “Number … (sour/metallic)” value came to 4c; the “Number of tests perceived as d” value is 4 days; the “Number … (no taste)” value came out at 4e.
Take `Cc1occc(=O)c1[O-].Cc1occc(=O)c1[O-].Cc1occc(=O)c1[O-].[Fe+3]` [Solution 5]: in data set [1] (setting [5]), the “Number … (sour/metallic)” value was 3c; the “Number of tests perceived as d” value was found to be 4 days; the “Number … (no taste)” value is given as 5e.
For the compound `Cc1occc(=O)c1[O-].Cc1occc(=O)c1[O-].Cc1occc(=O)c1[O-].[Fe+3]` [Solution 6], in data set [1] (setting [6]), the “Number of tests perceived as d” value was 2 days; the “Number … (no taste)” value came to 10e.
As to `OC[C@@H](O)[C@@H](O)[C@H](O)[C@@H](O)CO` [Sorbitol], the “Relative sweetness of sugar” value in data set [2] is given as 50%.
Turning to `OC[C@H]1O[C@@](CO)(O[C@H]2O[C@H](CO)[C@@H](O)[C@H](O)[C@H]2O)[C@@H](O)[C@@H]1O` [Sugar, reference compound], in data set [1] (setting [3]), the “Number of tests perceived as a (sweet)” value was found to be 19 and the “Number … (no taste)” value is listed as 5.
With Isomalt, the “Relative sweetness of sugar” value in data set [2] is 45-65%.
